In EP3912994A1:
These are yes or no findings as the source states them, for the method shown. In cells and extracts the contact can be indirect. These calls come from enrichment with a bait or labelling near it, and not all partners need be listed.

Protein sequences, listed by entry. Tags and fused reporters are not part of them. Residues count along the entry.
UniProt Q80YX1, residues 23-2110: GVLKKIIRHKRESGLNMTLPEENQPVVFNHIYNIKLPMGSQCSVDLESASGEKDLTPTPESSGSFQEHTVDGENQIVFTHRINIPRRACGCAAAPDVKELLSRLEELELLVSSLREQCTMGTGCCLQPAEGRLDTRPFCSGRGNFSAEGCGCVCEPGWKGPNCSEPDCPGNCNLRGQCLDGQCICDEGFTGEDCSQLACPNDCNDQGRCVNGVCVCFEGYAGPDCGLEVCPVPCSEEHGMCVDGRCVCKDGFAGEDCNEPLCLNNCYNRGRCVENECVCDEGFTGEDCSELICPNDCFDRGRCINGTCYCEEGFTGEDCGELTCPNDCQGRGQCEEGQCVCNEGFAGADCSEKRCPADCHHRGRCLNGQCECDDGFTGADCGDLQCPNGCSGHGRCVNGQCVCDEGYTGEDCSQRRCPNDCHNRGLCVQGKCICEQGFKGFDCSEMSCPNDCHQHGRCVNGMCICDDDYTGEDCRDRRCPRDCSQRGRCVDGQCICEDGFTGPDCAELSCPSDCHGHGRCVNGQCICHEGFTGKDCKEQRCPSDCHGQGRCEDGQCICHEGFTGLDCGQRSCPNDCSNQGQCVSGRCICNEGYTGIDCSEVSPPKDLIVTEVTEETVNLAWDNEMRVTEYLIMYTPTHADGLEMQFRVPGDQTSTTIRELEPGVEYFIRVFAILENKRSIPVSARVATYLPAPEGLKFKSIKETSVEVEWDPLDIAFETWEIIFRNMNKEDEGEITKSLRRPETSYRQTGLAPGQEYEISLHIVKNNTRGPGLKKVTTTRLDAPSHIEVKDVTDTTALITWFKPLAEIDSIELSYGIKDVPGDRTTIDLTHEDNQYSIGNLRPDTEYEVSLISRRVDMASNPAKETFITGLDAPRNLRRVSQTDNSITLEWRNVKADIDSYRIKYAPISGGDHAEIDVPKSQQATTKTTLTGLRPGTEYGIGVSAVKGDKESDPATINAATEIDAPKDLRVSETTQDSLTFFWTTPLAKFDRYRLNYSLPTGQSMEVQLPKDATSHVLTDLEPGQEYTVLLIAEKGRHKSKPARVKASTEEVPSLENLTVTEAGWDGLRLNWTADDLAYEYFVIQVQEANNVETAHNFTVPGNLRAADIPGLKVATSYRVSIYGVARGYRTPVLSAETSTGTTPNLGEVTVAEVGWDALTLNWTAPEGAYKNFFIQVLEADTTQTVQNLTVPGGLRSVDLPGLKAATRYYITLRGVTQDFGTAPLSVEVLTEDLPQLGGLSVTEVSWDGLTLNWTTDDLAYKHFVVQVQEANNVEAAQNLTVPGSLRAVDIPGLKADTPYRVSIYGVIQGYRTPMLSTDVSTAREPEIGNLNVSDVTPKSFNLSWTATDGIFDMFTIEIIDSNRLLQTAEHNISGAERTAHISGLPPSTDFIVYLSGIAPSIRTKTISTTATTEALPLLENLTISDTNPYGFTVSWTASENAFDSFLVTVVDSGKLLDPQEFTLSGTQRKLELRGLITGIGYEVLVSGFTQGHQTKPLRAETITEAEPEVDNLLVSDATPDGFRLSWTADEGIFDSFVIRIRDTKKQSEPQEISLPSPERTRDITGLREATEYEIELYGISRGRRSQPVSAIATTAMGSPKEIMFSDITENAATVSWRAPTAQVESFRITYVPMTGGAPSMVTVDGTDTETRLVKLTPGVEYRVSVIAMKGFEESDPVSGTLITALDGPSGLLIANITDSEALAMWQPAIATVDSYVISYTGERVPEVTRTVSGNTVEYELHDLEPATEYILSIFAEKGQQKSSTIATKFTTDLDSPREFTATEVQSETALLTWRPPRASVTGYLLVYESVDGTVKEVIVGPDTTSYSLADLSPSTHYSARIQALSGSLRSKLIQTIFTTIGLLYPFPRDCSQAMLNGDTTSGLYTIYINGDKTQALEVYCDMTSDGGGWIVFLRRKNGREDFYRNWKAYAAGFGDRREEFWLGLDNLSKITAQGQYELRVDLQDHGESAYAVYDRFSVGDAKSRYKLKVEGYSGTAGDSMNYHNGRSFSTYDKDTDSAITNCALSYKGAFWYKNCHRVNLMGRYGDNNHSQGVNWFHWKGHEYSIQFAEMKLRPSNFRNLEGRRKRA

B1: A disintegrin and metalloproteinase with thrombospondin motifs 1 (enzyme, UniProt P97857 254-968, looked up)
chain: FVSSPRYVETMLVADQSMADFHGSGLKHYLLTLFSVAARFYKHPSIRNSISLVVVKILVIYEEQKGPEVTSNAALTLRNFCSWQKQHNSPSDRDPEHYDTAILFTRQDLCGSHTCDTLGMADVGTVCDPSRSCSVIEDDGLQAAFTTAHELGHVFNMPHDDAKHCASLNGVSGDSHLMASMLSSLDHSQPWSPCSAYMVTSFLDNGHGECLMDKPQNPIKLPSDLPGTLYDANRQCQFTFGEESKHCPDAASTCTTLWCTGTSGGLLVCQTKHFPWADGTSCGEGKWCVSGKCVNKTDMKHFATPVHGSWGPWGPWGDCSRTCGGGVQYTMRECDNPVPKNGGKYCEGKRVRYRSCNIEDCPDNNGKTFREEQCEAHNEFSKASFGNEPTVEWTPKYAGVSPKDRCKLTCEAKGIGYFFVLQPKVVDGTPCSPDSTSVCVQGQCVKAGCDRIIDSKKKFDKCGVCGGNGSTCKKMSGIVTSTRPGYHDIVTIPAGATNIEVKHRNQRGSRNNGSFLAIRAADGTYILNGNFTLSTLEQDLTYKGTVLRYSGSSAALERIRSFSPLKEPLTIQVLMVGHALRPKIKFTYFMKKKTESFNAIPTFSEWVIEEWGECSKTCGSGWQRRVVQCRDINGHPASECAKEVKPASTRPCADLPCPHWQVGDWSPCSKTCGKGYKKRTLKCVSHDGGVLSNESCDPLKKPKHYIDFCTLTQCS
B2: Progranulin (protein, UniProt P28798 18-589, looked up)
chain: TQCPDGQFCPVACCLDQGGANYSCCNPLLDTWPRITSHHLDGSCQTHGHCPAGYSCLLTVSGTSSCCPFSKGVSCGDGYHCCPQGFHCSADGKSCFQMSDNPLGAVQCPGSQFECPDSATCCIMVDGSWGCCPMPQASCCEDRVHCCPHGASCDLVHTRCVSPTGTHTLLKKFPAQKTNRAVSLPFSVVCPDAKTQCPDDSTCCELPTGKYGCCPMPNAICCSDHLHCCPQDTVCDLIQSKCLSKNYTTDLLTKLPGYPVKEVKCDMEVSCPEGYTCCRLNTGAWGCCPFAKAVCCEDHIHCCPAGFQCHTEKGTCEMGILQVPWMKKVIAPLRLPDPQILKSDTPCDDFTRCPTNNTCCKLNSGDWGCCPIPEAVCCSDNQHCCPQGFTCLAQGYCQKGDTMVAGLEKIPARQTTPLQIGDIGCDQHTSCPVGQTCCPSLKGSWACCQLPHAVCCEDRQHCCPAGYTCNVKARTCEKDVDFIQPPVLLTLGPKVGNVECGEGHFCHDNQTCCKDSAGVWACCPYLKGVCCRDGRHCCPGGFHCSARGTKCLRKKIPRWDMFLRDPVPRPLL
B3: Annexin A4 (protein, UniProt P97429 1-319, looked up)
chain: MEAKGGTVKAASGFNATEDAQTLRKAMKGLGTDEDAIIGILAYRNTAQRQEIRSAYKSTIGRDLIEDLKSELSSNFEQVILGLMTPTVLYDVQELRRAMKGAGTDEGCLIEILASRTPEEIRRINQTYQQQYGRSLEEDICSDTSFMFQRVLVSLSAAGRDEGNYLDDALMKQDAQELYEAGEKRWGTDEVKFLSILCSRNRNHLLHVFDEYKRISQKDIEQSIKSETSGSFEDALLAIVKCMRSKPSYFAERLYKSMKGLGTDDNTLIRVMVSRAEIDMLDIRASFKRLYGKSLYSFIKGDTSGDYRKVLLVLCGGDD
B4: Annexin A6 (protein, UniProt P14824 2-673, looked up)
chain: AKIAQGAMYRGSVHDFPEFDANQDAEALYTAMKGFGSDKESILELITSRSNKQRQEICQNYKSLYGKDLIEDLKYELTGKFERLIVNLMRPLAYCDAKEIKDAISGVGTDEKCLIEILASRTNEQMHQLVAAYKDAYERDLESDIIGDTSGHFQKMLVVLLQGTRENDDVVSEDLVQQDVQDLYEAGELKWGTDEAQFIYILGNRSKQHLRLVFDEYLKTTGKPIEASIRGELSGDFEKLMLAVVKCIRSTPEYFAERLFKAMKGLGTRDNTLIRIMVSRSELDMLDIREIFRTKYEKSLYSMIKNDTSGEYKKALLKLCGGDDDAAGQFFPEAAQVAYQMWELSAVSRVELKGTVCAANDFNPDADAKALRKAMKGIGTDEATIIDIVTHRSNAQRQQIRQTFKSHFGRDLMADLKSEISGDLARLILGLMMPPAHYDAKQLKKAMEGAGTDEKTLIEILATRTNAEIRAINEAYKEDYHKSLEDALSSDTSGHFRRILISLATGNREEGGENRDQAQEDAQVAAEILEIADTPSGDKTSLETRFMTVLCTRSYPHLRRVFQEFIKKTNYDIEHVIKKEMSGDVKDAFVAIVQSVKNKPLFFADKLYKSMKGAGTDEKTLTRVMVSRSEIDLLNIRREFIEKYDKSLHQAIEGDTSGDFMKALLALCGGED
B5: Apolipoprotein C-III (protein, UniProt P33622 21-99, looked up)
chain: EEVEGSLLLGSVQGYMEQASKTVQDALSSVQESDIAVVARGWMDNHFRFLKGYWSKFTDKFTGFWDSNPEDQPTPAIES
B6: Cochlin (protein, UniProt Q62507 27-552, looked up)
chain: EGAVPIPVTCFTRGLDIRKEKADVLCPGGCSLEEFSVFGNIVYASVSSICGAAVHRGVIGTSGGPVRVYSLPGRENYSSVDANGIQSQMLSRWSASFAVTKGKSSTQEATGRAVSTAHPPSGKRLKKTPEKKTGNKDCKADIAFLIDGSFNIGQRRFNLQKNFVGKVALMLGIGTEGPHVGLVQASEHPKIEFYLKNFTSAKDVLFAIKEVGFRGGNSNTGKALKHTAQKFFTADTGVRKGIPKVVVVFIDGWPSDDIEEAGIVAREFGVNVFIVSVAKPIPEELGMVQDVAFVDKAVCRNNGFFSYHMPNWFGTTKYVKPLVQKLCTHEQMMCSKTCYNSVNIAFLIDGSSSVGDSNFRLMLEFVSNIAKTFEISDIGAKIAAVQFTYDQRTEFSFTDYNTKENVLAVLANIRYMSGGTATGDAIAFTVRNVFGPIRDSPNKNFLVIVTDGQSYDDVRGPAAAAHDAGITIFSVGVAWAPLDDLRDMASKPKESHAFFTREFTGLEPIVSDVIRGICRDFLESQQ
B7: CCN family member 1 (protein, UniProt P18406 25-379, looked up)
chain: TCPAACHCPLEAPKCAPGVGLVRDGCGCCKVCAKQLNEDCSKTQPCDHTKGLECNFGASSTALKGICRAQSEGRPCEYNSRIYQNGESFQPNCKHQCTCIDGAVGCIPLCPQELSLPNLGCPNPRLVKVSGQCCEEWVCDEDSIKDSLDDQDDLLGLDASEVELTRNNELIAIGKGSSLKRLPVFGTEPRVLFNPLHAHGQKCIVQTTSWSQCSKSCGTGISTRVTNDNPECRLVKETRICEVRPCGQPVYSSLKKGKKCSKTKKSPEPVRFTYAGCSSVKKYRPKYCGSCVDGRCCTPLQTRTVKMRFRCEDGEMFSKNVMMIQSCKCNYNCPHPNEASFRLYSLFNDIHKFRD
B8: EGF-like repeat and discoidin I-like domain-containing protein 3 (protein, UniProt O35474 24-480, looked up)
chain: DICNPNPCENGGICLSGLADDSFSCECPEGFAGPNCSSVVEVASDEEKPTSAGPCIPNPCHNGGTCEISEAYRGDTFIGYVCKCPRGFNGIHCQHNINECEAEPCRNGGICTDLVANYSCECPGEFMGRNCQYKCSGPLGIEGGIISNQQITASSTHRALFGLQKWYPYYARLNKKGLINAWTAAENDRWPWIQINLQRKMRVTGVITQGAKRIGSPEYIKSYKIAYSNDGKTWAMYKVKGTNEEMVFRGNVDNNTPYANSFTPPIKAQYVRLYPQICRRHCTLRMELLGCELSGCSEPLGMKSGHIQDYQITASSVFRTLNMDMFTWEPRKARLDKQGKVNAWTSGHNDQSQWLQVDLLVPTKVTGIITQGAKDFGHVQFVGSYKLAYSNDGEHWMVHQDEKQRKDKVFQGNFDNDTHRKNVIDPPIYARFIRILPWSWYGRITLRSELLGCAEEE
B9: Coagulation factor XIII A chain (enzyme, UniProt Q8BH61 2-732, looked up)
chain: SDTPASTFGGRRAVPPNNSNAAEVDLPTEELQGLVPRGVNLKDYLNVTAVHLFKERWDSNKIDHHTDKYDNNKLIVRRGQTFYIQIDFNRPYDPRKDLFRVEYVIGRYPQENKGTYIPVPVVKELQSGKWGAKVIMNEDRSVRLSVQSSPECIVGKFRMYVAVWTPYGILRTRRDPETDTYILFNPWCEEDAVYLDDEKEREEYVLNDIGVIFYGDFKDIKSRSWSYGQFEDGILDTCLYVMDKAEMDLSGRGNPIKVSRVGSAMVNAKDDEGVLVGSWDNVYAYGIPPSAWTGSVDILLEYRSSETPVRYGQCWVFAGVFNTFLRCLGIPARVITNYFSAHDNDANLQMDIFLEEDGNVSSKLTKDSVWNYHCWNEAWMTRPDLPVGFGGWQAVDSTPQENSDGMYRCGPASVQAVKHGHVCFQFDAPFVFAEVNSDLVYITAKQDGTHVVEAVDATHIGKLIVTKQIGGDGMQDITDTYKFQEGQEEERLALETALMYGAKKTLNTEGVVKSRSDVTMNFDVENAVLGKDFKVTITFQNNSSNLYTILAYLSGNITFYTGVSKKEFKKESFEETLDPFSSKKKEVLVRAGEYMSHLLEQGFLHFFVTARINESRDVLAKQKSIILTIPKITIKVRGAAMVGSDMVVTVEFTNPLKETLQNVWIHLDGPGVMRPKRKVFREIRPNTTVQWEEVCRPWVSGHRKLIASMTSDSLRHVYGELDLQIQRRPTM
B10: Fibulin-1 (protein, UniProt Q08879 30-705, looked up)
chain: DISMEACCTDGNQMANQHRDCSLPYTSESKECRMVQEQCCHNQLEELHCATGINLASEPEGCASLHSYNSSLETIFIKRCCHCCMLGKASLARDQTCEPIVMISYQCGLVFRACCVKARENSDFVQGNGADLQDPAKIPDEEDQEDPYLNDRCRGGGPCKQQCRDTGDEVICSCFVGYQLQSDGVSCEDINECITGSHNCRLGESCINTVGSFRCQRDSSCGTGYELTEDNNCKDIDECETGIHNCPPDFICQNTLGSFRCRPKLQCKSGFIQDALGNCIDINECLSISAPCPVGQTCINTEGSYTCQKNVPNCGRGYHLNEEGTRCVDVDECSPPAEPCGKGHHCLNSPGSFRCECKAGFYFDGISRTCVDINECQRYPGRLCGHKCENTPGSFHCSCSAGFRLSVDGRSCEDVNECLNSPCSQECANVYGSYQCYCRRGYQLSDVDGVTCEDIDECALPTGGHICSYRCINIPGSFQCSCPSSGYRLAPNGRNCQDIDECVTGIHNCSINETCFNIQGSFRCLSFECPENYRRSADTFRQEKTDTVRCIKSCRPNDEACVRDPVHTVSHTVISLPTFREFTRPEEIIFLRAVTPLYPANQADIIFDITEGNLRDSFDIIKRYEDGMTVGVVRQVRPIVGPFYAVLKLEMNYVLGGVVSHRNVVNVHIFVSEYWF
B11: Glypican-1 (protein, UniProt Q9QZF2 24-529, looked up)
chain: DPASKSRSCSEVRQIYGAKGFSLSDVPQAEISGEHLRICPQGYTCCTSEMEENLANHSRMELESALHDSSRALQATLATQLHGIDDHFQRLLNDSERTLQEAFPGAFGDLYTQNTRAFRDLYAELRLYYRGANLHLEETLAEFWARLLERLFKQLHPQLLPDDYLDCLGKQAEALRPFGDAPRELRLRATRAFVAARSFVQGLGVASDVVRKVAQVPLAPECSRAIMKLVYCAHCRGVPGARPCPDYCRNVLKGCLANQADLDAEWRNLLDSMVLITDKFWGPSGAESVIGGVHVWLAEAINALQDNKDTLTAKVIQACGNPKVNPHGSGPEEKRRRGKLALQEKPSTGTLEKLVSEAKAQLRDIQDFWISLPGTLCSEKMAMSPASDDRCWNGISKGRYLPEVMGDGLANQINNPEVEVDITKPDMTIRQQIMQLKIMTNRLRGAYGGNDVDFQDASDDGSGSGSGGGCPDDTCGRRVSKKSSSSRTPLTHALPGLSEQEGQKTS

target: murine strep-tagged TNC (mTNC) (mouse) (UniProt Q80YX1); assay: co-purification with recombinant mTNC, 1 M NaCl eluate, mass spectrometry

| Binder | binding |
| --- | --- |
| B1 | binds |
| B2 | binds |
| B3 | binds |
| B4 | binds |
| B5 | binds |
| B6 | binds |
| B7 | binds |
| B8 | binds |
| B9 | binds |
| B10 | binds |
| B11 | binds |
